No constants are given. Whether binding was seen depends on the method and setting. Binding seen in cells or lysates may run through a third protein. A result given as binding can be weak or reduced; the word gives no strength. Tags and fused reporters may be left off the sequences shown.

The target in this assay is KlSir4-Flag (Kluyveromyces lactis). In words: co-IP; whole-cell lysate of K. lactis with KlSIR2-HA, KlSIR4-Flag and myc-KlSUM1 alleles (wild-type LRY2285; also sum1Δ LRY2158 and sir4Δ LRY2282); anti-HA, anti-Flag or anti-myc overnight at 4°C, Protein A agarose; immunoblot for the tags. On the technique in general: Immunoblotting shows a protein as a band on a membrane.

B1: KlSir2-HA (enzyme, UniProt P33294 1-670)
chain: MTEYYGTLQKRPLEQESVAEGNGGLESGKKARGDSDVFAARSPENEDVDVDADADVDADADADADAEEDAQKDILEETKADELDEVVDEYEEKEVSSNFNGTASDHVGITSSNTGSTALAASSADTNSGSGNGTGTMATNGTLSDRQYAPQKPEHPIKLERRSVSRKYVFPVISKEDSLNARSYLKQFGSARFLDDYLPEDLNSLYVYHMIKLLGFQIKDKELMLAIQEVVHNADNDDSLPQKNSSETKNVSDTYTATYPSPSFEDPLEKKHAVRLIKDLQKAMNKVLSTRIRLTNFHTIDDFVAKLKTAKKIIVLTGAGISTSLGIPDFRSSEGFYSKLGDLGLNDPQDVFSLEVFTEDPSVFYNIAHMVLPPENMYSPLHSFIKMIQDKDKLLRNYTQNIDNLESYAGVEPEKMVQCHGSFATASCVTCHWKIQGERIFPNIRNLQLPICPYCYSKRLEFFKTKTDEELADGEDDDMDDHHGRSVPKSFGVLKPDITFFGEALPSKFHRLIREDVLQCDLLICIGTSLKVAPVSEIVNMIPAHVPQVLINKDPVKHAEFDLSLLGLCDDVAALVAQKCGWDIPHDNWNKLKNKVFDSEEVERGVYKVHPLNESPAELEAEEEKHLPLQQSTAALTPPVSLSADSPGRSSSSSPQPPTQTDIANNQTST
Turning to B1, the binding entry is recorded as “binds”.

These data come from PMC2762165.
